Test systems include LRBA (human); LRP10 (human); LRRC1 (human); LRRC14 (human); LRRC32 (human); LRRC3B (human); LRRIQ2 (human); LSM14B (human); LSM8 (human); LST1 (human); LTB (human); LXN (human); LY6E (human); LY6G6C (human); LYNX1 (human); LYPD1 (human).
Experiment in all cases: protein microarray (ProtoArray v5.0), streptavidin-Alexa Fluor 647
What all share (conditions): 3'-biotin; 20 mM Tris (pH 7.5), 5 mM MgCl2, 100 mM KCl, 0.1% Tween-20, A/T-rich and random oligonucleotide blockers; temperature not stated; high values mean tight binding

Amino acid sequences for entries named in this document (tags omitted). A change or cut given only in a name is not applied to a line headed by its entry.
UniProt Q86X40: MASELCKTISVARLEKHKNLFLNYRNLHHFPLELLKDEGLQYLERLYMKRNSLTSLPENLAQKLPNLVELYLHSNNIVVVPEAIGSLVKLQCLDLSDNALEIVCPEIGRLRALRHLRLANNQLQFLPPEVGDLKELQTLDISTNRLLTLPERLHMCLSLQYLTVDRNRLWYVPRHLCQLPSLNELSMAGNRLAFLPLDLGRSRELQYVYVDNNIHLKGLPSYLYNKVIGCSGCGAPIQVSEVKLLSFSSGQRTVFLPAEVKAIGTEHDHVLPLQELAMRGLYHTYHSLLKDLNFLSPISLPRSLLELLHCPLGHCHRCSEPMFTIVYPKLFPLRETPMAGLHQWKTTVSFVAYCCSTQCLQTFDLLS
UniProt Q3MHD2: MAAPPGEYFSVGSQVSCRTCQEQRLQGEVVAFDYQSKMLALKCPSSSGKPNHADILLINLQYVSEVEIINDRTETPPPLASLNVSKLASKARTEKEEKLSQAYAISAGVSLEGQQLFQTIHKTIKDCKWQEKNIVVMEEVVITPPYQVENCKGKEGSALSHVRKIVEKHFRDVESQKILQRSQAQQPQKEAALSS

The target in the next experiment is LRRC28 (UniProt Q86X40).
A further experiment has as its target LSM12 (UniProt Q3MHD2).
In a further experiment the target is T1, LSM4 (UniProt Q9Y4Z0).
T1 sequence: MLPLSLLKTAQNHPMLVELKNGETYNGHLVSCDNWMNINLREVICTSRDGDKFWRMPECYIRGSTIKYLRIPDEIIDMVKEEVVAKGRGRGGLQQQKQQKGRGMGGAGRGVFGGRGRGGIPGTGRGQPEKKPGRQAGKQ

A further experiment deals with T2, LYG2 (UniProt Q86SG7).
T2 sequence: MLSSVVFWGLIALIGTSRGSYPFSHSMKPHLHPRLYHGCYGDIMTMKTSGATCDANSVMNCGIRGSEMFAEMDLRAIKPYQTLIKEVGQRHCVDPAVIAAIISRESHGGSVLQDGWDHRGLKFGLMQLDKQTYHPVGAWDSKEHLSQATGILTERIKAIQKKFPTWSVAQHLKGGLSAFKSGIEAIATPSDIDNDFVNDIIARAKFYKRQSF

Several values for one entry are separate records, joined by “and”; a condition that tells them apart may be missing. Identical values can stand only once. The list shows a part of the results. For some assays here: Construct or isoform of the protein are uncertain.

For “GGGAGGCTGAGGCAGG [G4-1 biotinylated (PQS2)]”, the binding signal in the experiment with LRBA (human) was -0.299 z-score and -0.289 z-score; in the experiment on LRP10 (human), -0.328 z-score; in the experiment with LRRC1 (human), -0.324 z-score; in the experiment on LRRC14 (human) it was -0.315 z-score; with LRRC28 it was -0.297 z-score; in the experiment with LRRC32 (human), -0.31 z-score. For the same sequence, the binding signal is -0.315 z-score in the experiment with LRRC3B (human); -0.33 z-score in the experiment with LRRIQ2 (human); -0.307 z-score in the experiment with LSM12; -0.307 z-score in the experiment on LSM14B (human); 3.24 z-score with LSM4; -0.343 z-score and -0.3 z-score in the experiment with LSM8 (human). The binding signal in the experiment on LST1 (human) was -0.275 z-score; in the experiment with LTB (human), -0.347 z-score; in the experiment with LXN (human), -0.343 z-score; in the experiment with LY6E (human), -0.339 z-score; with LY6G6C (human), -0.327 z-score; in the experiment with LYG2 it was -0.245 z-score. Also, the binding signal in the experiment on LYNX1 (human) is -0.335 z-score; in the experiment with LYPD1 (human) it was -0.338 z-score.

The values above are taken from publication PMC5996148.
